Test results published in the supplement of paper PMC10032668.
± gives the standard deviation of the averaged measurements. This is one part of the list. The list holds hits alone, and they repeat only in part.

Protein sequences, listed by entry. Tags and fused reporters are not part of them.
CD3EAP, O15446, UniProt O15446, whole entry: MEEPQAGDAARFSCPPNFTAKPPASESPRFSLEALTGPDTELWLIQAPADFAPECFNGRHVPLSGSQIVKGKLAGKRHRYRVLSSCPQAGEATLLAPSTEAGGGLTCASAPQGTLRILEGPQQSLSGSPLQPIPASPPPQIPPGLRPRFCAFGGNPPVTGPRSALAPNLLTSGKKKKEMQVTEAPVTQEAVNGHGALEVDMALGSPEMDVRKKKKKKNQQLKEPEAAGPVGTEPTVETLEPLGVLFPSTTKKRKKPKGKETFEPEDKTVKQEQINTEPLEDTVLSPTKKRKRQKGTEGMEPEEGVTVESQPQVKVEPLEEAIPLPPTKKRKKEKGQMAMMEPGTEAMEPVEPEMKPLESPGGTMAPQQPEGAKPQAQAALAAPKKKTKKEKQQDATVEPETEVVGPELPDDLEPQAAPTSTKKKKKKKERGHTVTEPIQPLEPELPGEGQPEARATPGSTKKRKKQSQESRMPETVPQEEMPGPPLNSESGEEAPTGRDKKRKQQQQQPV
COA4, Q9NYJ1, UniProt Q9NYJ1, whole entry: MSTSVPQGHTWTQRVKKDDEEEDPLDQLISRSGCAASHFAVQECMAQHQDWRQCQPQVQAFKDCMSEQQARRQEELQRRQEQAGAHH
SRPK1, Q96SB4, UniProt Q96SB4, whole entry: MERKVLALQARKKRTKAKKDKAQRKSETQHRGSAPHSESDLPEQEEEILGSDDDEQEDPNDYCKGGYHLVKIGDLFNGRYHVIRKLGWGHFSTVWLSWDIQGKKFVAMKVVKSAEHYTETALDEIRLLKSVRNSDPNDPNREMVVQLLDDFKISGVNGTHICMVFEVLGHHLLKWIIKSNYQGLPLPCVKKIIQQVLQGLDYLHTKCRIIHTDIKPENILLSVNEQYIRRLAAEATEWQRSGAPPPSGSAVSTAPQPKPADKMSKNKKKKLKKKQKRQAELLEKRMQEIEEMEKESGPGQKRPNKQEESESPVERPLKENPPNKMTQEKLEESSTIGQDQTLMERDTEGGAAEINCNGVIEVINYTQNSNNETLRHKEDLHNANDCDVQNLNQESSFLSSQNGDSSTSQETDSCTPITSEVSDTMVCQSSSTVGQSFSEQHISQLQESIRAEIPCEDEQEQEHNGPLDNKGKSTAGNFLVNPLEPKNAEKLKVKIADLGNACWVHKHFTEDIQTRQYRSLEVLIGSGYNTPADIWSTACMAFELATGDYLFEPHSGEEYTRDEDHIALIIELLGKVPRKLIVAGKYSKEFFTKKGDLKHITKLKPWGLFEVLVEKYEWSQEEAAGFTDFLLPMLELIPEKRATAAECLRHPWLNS
SRSF1, Q07955, UniProt Q07955, whole entry: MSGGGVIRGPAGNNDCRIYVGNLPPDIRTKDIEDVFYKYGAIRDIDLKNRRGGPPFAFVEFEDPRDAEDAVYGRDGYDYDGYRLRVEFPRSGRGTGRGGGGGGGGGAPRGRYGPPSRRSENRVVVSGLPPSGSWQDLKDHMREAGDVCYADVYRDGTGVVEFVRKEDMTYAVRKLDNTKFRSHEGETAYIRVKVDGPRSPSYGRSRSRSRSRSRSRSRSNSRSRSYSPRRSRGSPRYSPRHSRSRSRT
SRSF9, Q13242, UniProt Q13242, whole entry: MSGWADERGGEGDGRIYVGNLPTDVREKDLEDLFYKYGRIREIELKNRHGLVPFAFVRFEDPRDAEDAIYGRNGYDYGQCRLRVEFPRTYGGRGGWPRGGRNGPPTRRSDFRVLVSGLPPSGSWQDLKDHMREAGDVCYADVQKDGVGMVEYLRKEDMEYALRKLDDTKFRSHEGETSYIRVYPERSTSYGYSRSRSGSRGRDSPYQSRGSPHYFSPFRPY
CD2AP, Q9Y5K6, UniProt Q9Y5K6, whole entry: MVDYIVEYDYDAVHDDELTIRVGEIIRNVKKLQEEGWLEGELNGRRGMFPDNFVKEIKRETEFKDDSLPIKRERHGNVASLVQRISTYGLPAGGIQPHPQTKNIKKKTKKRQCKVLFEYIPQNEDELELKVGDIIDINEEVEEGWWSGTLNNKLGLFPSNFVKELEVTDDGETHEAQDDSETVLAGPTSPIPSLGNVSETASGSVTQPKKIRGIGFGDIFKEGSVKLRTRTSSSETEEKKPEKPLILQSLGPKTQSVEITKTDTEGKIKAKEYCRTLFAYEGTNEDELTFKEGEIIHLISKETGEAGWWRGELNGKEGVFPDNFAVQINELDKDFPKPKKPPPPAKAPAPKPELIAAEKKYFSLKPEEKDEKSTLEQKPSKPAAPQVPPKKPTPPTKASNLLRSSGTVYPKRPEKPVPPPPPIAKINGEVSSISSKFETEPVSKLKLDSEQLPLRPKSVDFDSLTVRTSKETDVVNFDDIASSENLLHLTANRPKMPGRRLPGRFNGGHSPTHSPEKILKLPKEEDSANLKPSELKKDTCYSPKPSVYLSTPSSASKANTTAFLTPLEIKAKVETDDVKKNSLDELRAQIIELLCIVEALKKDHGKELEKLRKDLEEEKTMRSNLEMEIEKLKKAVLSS
PHAX, Q9H814, UniProt Q9H814, whole entry: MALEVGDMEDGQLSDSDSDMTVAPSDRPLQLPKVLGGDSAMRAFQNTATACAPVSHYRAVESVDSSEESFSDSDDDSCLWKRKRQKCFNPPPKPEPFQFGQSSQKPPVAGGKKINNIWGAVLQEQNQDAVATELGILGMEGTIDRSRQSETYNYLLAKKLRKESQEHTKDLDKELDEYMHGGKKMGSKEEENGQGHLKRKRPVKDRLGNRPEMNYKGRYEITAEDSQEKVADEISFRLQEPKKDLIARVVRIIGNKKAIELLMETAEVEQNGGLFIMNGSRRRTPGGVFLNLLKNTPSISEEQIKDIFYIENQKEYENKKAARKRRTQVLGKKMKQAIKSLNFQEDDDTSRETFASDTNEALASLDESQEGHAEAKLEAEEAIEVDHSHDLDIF

Assays:
Assay in all cases: PRISMA enrichment of interactor (LFQ) in peptide spot vs all other peptide spots (log2 fold change); higher = stronger / more specific binding of the interactor to the peptide
[1] = molecular target: ANP32A, P39687
Experimental: (§1)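 PRISMA: 221 full-length sORF-encoded peptides (3-15 aa), plus SOS1/GLUT1 control peptides, were spot-synthesized on cellulose membranes in triplicate. Membranes were incubated with HEK293T lysate, and bound proteins were identified by LC-MS/MS with LFQ. Enrichment is the log2 fold change versus all other peptide spots; only significant interactors are listed (cutoff c=6, x0=2.8).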

[2] = molecular target: ANP32B, Q92688
Experimental: as §1

[3] = molecular target: ANP32E, Q9BTT0
Experimental: as §1

[4] = molecular target: ASCC2, Q9H1I8
Experimental: as §1

[5] = molecular target: CD3EAP, O15446
Experimental: as §1

[6] = molecular target: CDK11B, P21127
Experimental: as §1

[7] = molecular target: CNPY2, Q9Y2B0
Experimental: as §1

[8] = molecular target: COA4, Q9NYJ1
Experimental: as §1

[9] = molecular target: DAP3, P51398
Experimental: as §1

[10] = molecular target: EIF6, P56537
Experimental: as §1

[11] = molecular target: FLII, Q13045
Experimental: as §1

[12] = molecular target: GRB2, P62993
Experimental: as §1

[13] = molecular target: HLA-C
Experimental: as §1

[14] = molecular target: HTATSF1, O43719
Experimental: as §1

[15] = molecular target: MRPS31, Q92665
Experimental: as §1

[16] = molecular target: PAF1, Q8N7H5
Experimental: as §1

[17] = molecular target: PRPF38B, Q5VTL8
Experimental: as §1

[18] = molecular target: PTCD3, Q96EY7
Experimental: as §1

[19] = molecular target: RNH1, P13489
Experimental: as §1

[20] = molecular target: SMAP, O00193
Experimental: as §1

[21] = molecular target: SNX9, Q9Y5X1
Experimental: as §1

[22] = molecular target: SRPK1, Q96SB4
Experimental: as §1

[23] = molecular target: SRSF1, Q07955
Experimental: as §1

[24] = molecular target: SRSF10, O75494
Experimental: as §1

[25] = molecular target: SRSF2, Q01130
Experimental: as §1

[26] = molecular target: SRSF5, Q13243
Experimental: as §1

[27] = molecular target: SRSF6, Q13247
Experimental: as §1

[28] = molecular target: SRSF7, Q16629
Experimental: as §1

[29] = molecular target: SRSF9, Q13242
Experimental: as §1

[30] = molecular target: SUPT5H, O00267
Experimental: as §1

[31] = molecular target: TRA2A, Q13595
Experimental: as §1

[32] = molecular target: ZRANB2, O95218
Experimental: as §1

[33] = molecular target: CD2AP, Q9Y5K6
Experimental: as §1

[34] = molecular target: CTTN, Q14247
Experimental: as §1

[35] = molecular target: DDX21, Q9NR30
Experimental: as §1

[36] = molecular target: LARP1, Q6PKG0
Experimental: as §1

[37] = molecular target: MOV10, Q9HCE1
Experimental: as §1

[38] = molecular target: MRPL10, Q7Z7H8
Experimental: as §1

[39] = molecular target: MRPL40, Q9NQ50
Experimental: as §1

[40] = molecular target: MRPS18B, Q9Y676
Experimental: as §1

[41] = molecular target: MRPS34, P82930
Experimental: as §1

[42] = molecular target: MRPS35, P82673
Experimental: as §1

[43] = molecular target: MRPS5, P82675
Experimental: as §1

[44] = molecular target: NAP1L1, P55209
Experimental: as §1

[45] = molecular target: NAP1L4, Q99733
Experimental: as §1

[46] = molecular target: NAT10, Q9H0A0
Experimental: as §1

[47] = molecular target: NOB1, Q9ULX3
Experimental: as §1

[48] = molecular target: NOC2L, Q9Y3T9
Experimental: as §1

[49] = molecular target: NPM3, O75607
Experimental: as §1

[50] = substrate: PC, P11498
Experimental: as §1

[51] = molecular target: PELP1, Q8IZL8
Experimental: as §1

[52] = molecular target: PHAX, Q9H814
Experimental: as §1

[53] = molecular target: PPM1G, O15355
Experimental: as §1

[54] = molecular target: RBM10
Experimental: as §1

MCEGRERERRAPQR [UGP2]
PRISMA enrichment of interactor (log2) [1]: 5.77
PRISMA enrichment of interactor (log2) [2]: 6.48
PRISMA enrichment of interactor (log2) [3]: 6.27
PRISMA enrichment of interactor (log2) [4]: 5.14
PRISMA enrichment of interactor (log2) [5]: 4.56
PRISMA enrichment of interactor (log2) [6]: 5.51
PRISMA enrichment of interactor (log2) [7]: 4.08
PRISMA enrichment of interactor (log2) [8]: 5.86
PRISMA enrichment of interactor (log2) [9]: 5.17
PRISMA enrichment of interactor (log2) [10]: 5.47
PRISMA enrichment of interactor (log2) [11]: 4.73
PRISMA enrichment of interactor (log2) [12]: 4.8
PRISMA enrichment of interactor (log2) [13]: 5.23
PRISMA enrichment of interactor (log2) [14]: 6.51
PRISMA enrichment of interactor (log2) [15]: 5.45
PRISMA enrichment of interactor (log2) [16]: 5.68
PRISMA enrichment of interactor (log2) [17]: 5.21
PRISMA enrichment of interactor (log2) [18]: 5.33
PRISMA enrichment of interactor (log2) [19]: 4.14
PRISMA enrichment of interactor (log2) [20]: 4.5
PRISMA enrichment of interactor (log2) [21]: 4.93
PRISMA enrichment of interactor (log2) [22]: 5.44
PRISMA enrichment of interactor (log2) [23]: 7.33
PRISMA enrichment of interactor (log2) [24]: 5.14
PRISMA enrichment of interactor (log2) [25]: 5.78
PRISMA enrichment of interactor (log2) [26]: 5.63
PRISMA enrichment of interactor (log2) [27]: 6.22
PRISMA enrichment of interactor (log2) [28]: 6.28
PRISMA enrichment of interactor (log2) [29]: 7.19
PRISMA enrichment of interactor (log2) [30]: 5.85
PRISMA enrichment of interactor (log2) [31]: 4.06
PRISMA enrichment of interactor (log2) [32]: 5.15

MRSARPRS [GATA6]
PRISMA enrichment of interactor (log2) [1]: 6.46
PRISMA enrichment of interactor (log2) [2]: 7.39
PRISMA enrichment of interactor (log2) [3]: 7.14
PRISMA enrichment of interactor (log2) [33]: 6.24
PRISMA enrichment of interactor (log2) [6]: 5.26
PRISMA enrichment of interactor (log2) [34]: 5.01
PRISMA enrichment of interactor (log2) [35]: 5.71
PRISMA enrichment of interactor (log2) [14]: 7.14
PRISMA enrichment of interactor (log2) [36]: 5.79
PRISMA enrichment of interactor (log2) [37]: 5.39
PRISMA enrichment of interactor (log2) [38]: 5.9
PRISMA enrichment of interactor (log2) [39]: 5.13
PRISMA enrichment of interactor (log2) [40]: 4.54
PRISMA enrichment of interactor (log2) [15]: 6.23
PRISMA enrichment of interactor (log2) [41]: 5.47
PRISMA enrichment of interactor (log2) [42]: 6.13
PRISMA enrichment of interactor (log2) [43]: 5.56
PRISMA enrichment of interactor (log2) [44]: 6.059 ± 0.056
PRISMA enrichment of interactor (log2) [45]: 5.71
PRISMA enrichment of interactor (log2) [46]: 5.21
PRISMA enrichment of interactor (log2) [47]: 5.28
PRISMA enrichment of interactor (log2) [48]: 5.33
PRISMA enrichment of interactor (log2) [49]: 5.47
PRISMA enrichment of interactor (log2) [16]: 5.21
PRISMA enrichment of interactor (log2) [50]: 4.3
PRISMA enrichment of interactor (log2) [51]: 5.15
PRISMA enrichment of interactor (log2) [52]: 4.68
PRISMA enrichment of interactor (log2) [53]: 6.16
PRISMA enrichment of interactor (log2) [18]: 5.87
PRISMA enrichment of interactor (log2) [54]: 5.89
